This passage reports survivor count and T/C results from PubChem BioAssay AID268 (DTP/NCI, 2004).

The list is a part of this screen's results and no random one: it is rich in T/C values a quarter to a half above the control, in often repeated tests (any T/C) and in doses without a T/C. Further doses and runs are listed elsewhere. T/C: endpoint of the treated group in % of that of the vehicle group. Schedule codes are those of the source, read here as Q, the interval in days (D) or hours (H), X, the number of doses. Some schedule codes hold Z or #, which are not explained here. Some doses have a count of surviving animals in place of a T/C: the source files T/C as zero there, which appears to mark a toxic dose or a test without result, not a measured value. Counts of survivors are from the toxicity check (mostly the fifth day) where no day follows; animals may have died later. Some doses were run more than once; the results are listed from low to high.

The test system of this experiment is CD2F1 mice, P1798 lymphosarcoma sc, tumor weight T/C. The experiment in a line: NCI In Vivo Anticancer Drug Screen. Data for tumor model P1798 Lymphosarcoma (subcutaneous) in CD2F1 (CDF1) mice. The conditions noted are these: higher T/C = larger tumour. As to the method: The antitumor activity of compounds was measured in mice bearing transplantable tumors. Survival or tumor size were measured and the results are expressed as the measurement made in the treated group (T) divided by the measurement made in the vehicle treated control group (C). The tumor model used in this assay is P1798 Lymphosarcoma (subcutaneous) in CD2F1 (CDF1) mice

Where [1] appears, read: T/C endpoint: mean tumor weight, dose: 50.0 mg/kg/injection, schedule: Q01DX010 (ip), vehicle: saline.
Setting [2] is: T/C endpoint: mean tumor weight, dose: 40.0 mg/kg/injection, schedule: Q01DX010 (ip), vehicle: saline.
[3] abbreviates: T/C endpoint: mean tumor weight, dose: 1000.0 mg/kg/injection, schedule: Q01DX010 (ip), vehicle: saline.
Setting [4] is: T/C endpoint: mean tumor weight, dose: 1.0 mg/kg/injection, schedule: Q01DX010 (ip), vehicle: saline.
Where [5] appears, read: T/C endpoint: mean tumor weight, dose: 20.0 mg/kg/injection, schedule: Q01DX010 (ip), vehicle: saline.
The mark [6] stands for this setting: T/C endpoint: mean tumor weight, dose: 100.0 mg/kg/injection, schedule: Q01DX010 (ip), vehicle: saline.
The mark [7] stands for this setting: T/C endpoint: mean tumor weight, dose: 2.0 mg/kg/injection, schedule: Q01DX010 (ip), vehicle: saline.
The mark [8] stands for this setting: T/C endpoint: mean tumor weight, dose: 10.0 mg/kg/injection, schedule: Q01DX010 (ip), vehicle: saline.

In the case of `COc1cc([C@@H]2c3cc4c(cc3[C@H](O)[C@H]3COC(=O)[C@H]23)OCO4)cc(OC)c1OC`, the survivor count (T/C endpoint: mean tumor weight, dose: 4.0 mg/kg/injection, schedule: Q01DX011 (ip), vehicle: carboxymethylcellulose (CMC)) is 0 of 6.

Turning to `CCCNc1ncnc2[nH]ncc12`, the T/C was 131 % of control (T/C endpoint: mean tumor weight, dose: 3.13 mg/kg/injection, schedule: Q01DX010 (ip), vehicle: saline, evaluated on day 12) and 129 % of control (T/C endpoint: mean tumor weight, dose: 12.5 mg/kg/injection, schedule: Q01DX010 (ip), vehicle: saline, evaluated on day 12). The survivor count is 3 of 6 (T/C endpoint: mean tumor weight, dose: 25.0 mg/kg/injection, schedule: Q01DX010 (ip), vehicle: saline) and 0 of 6 under setting [1].

For the compound `Cc1cc(N(CCCl)CCCl)ccc1N=Nc1ccccc1C(=O)O`, the survivor count under setting [2] is 0 of 6.

For the compound `C[C@]12C=CC(=O)C=C1CC[C@H]1[C@@H]3C[C@@H](O)[C@](O)(C(=O)CO)[C@@]3(C)C[C@H](O)[C@@]12F`, the T/C (T/C endpoint: mean tumor weight, dose: 12.5 mg/kg/injection, schedule: Q02DX010 (sc), vehicle: steroid suspending solution, run until all animals had died) is 132 % of control. Also, the survivor count (T/C endpoint: mean tumor weight, dose: 50.0 mg/kg/injection, schedule: Q01DX010 (sc), vehicle: steroid suspending solution) is recorded as 2 of 6; the survivor count (T/C endpoint: mean tumor weight, dose: 100.0 mg/kg/injection, schedule: Q01DX010 (sc), vehicle: steroid suspending solution) was 0 of 6 and 3 of 6.

Regarding `COCCOC`, under setting [3], the survivor count is 2 of 6.

With `Nc1nc(SCc2ccccc2)c2[nH]cnc2n1`, the T/C (T/C endpoint: mean tumor weight, dose: 16.0 mg/kg/injection, schedule: Q01DX010 (ip), vehicle: saline, evaluated on day 12) was 135 % of control. Also, the survivor count (T/C endpoint: mean tumor weight, dose: 64.0 mg/kg/injection, schedule: Q01DX010 (ip), vehicle: saline) is given as 1 of 6.

For the compound `CCOC(C)C(/C=N/NC(N)=S)=NNC(N)=S` (configuration not stated), the T/C (T/C endpoint: mean tumor weight, dose: 15.0 mg/kg/injection, schedule: Q01DX010 (ip), vehicle: saline, evaluated on day 12) is 125 % of control.

Consider `CC(=O)OCC(=O)[C@@]1(O)CC[C@H]2[C@@H]3CCC4=CC(=O)C=C[C@]4(C)[C@H]3[C@@H](O)C[C@@]21C`, for which the T/C (T/C endpoint: mean tumor weight, dose: 20.0 mg/kg/injection, schedule: Q01DX Z (sc), vehicle: steroid suspending solution, run until all animals had died) is 132 % of control.

Consider `O=C1C=CC2(CCC23C=CC(=O)O3)O1` (configuration not stated), for which the T/C (T/C endpoint: mean tumor weight, dose: 30.0 mg/kg/injection, schedule: Q01DX011 (ip), vehicle: saline, evaluated on day 12) is 143 % of control. In addition, where the note is “T/C endpoint: mean tumor weight, dose: 150.0 mg/kg/injection, schedule: Q01DX011 (ip), vehicle: saline”, the survivor count is 0 of 6.

In the case of `CC(=O)Nc1c(Cl)cc2c(c1Cl)Cc1cc([N+](=O)[O-])ccc1-2`, the survivor count is, setting by setting: (T/C endpoint: mean tumor weight, dose: 35.0 mg/kg/injection, schedule: Q01DX011 (ip), vehicle: carboxymethylcellulose (CMC)) 3 of 6; (T/C endpoint: mean tumor weight, dose: 125.0 mg/kg/injection, schedule: Q01DX011 (ip), vehicle: carboxymethylcellulose (CMC)) 3 of 6.

On to `Nc1nncs1`, for which the survivor count (T/C endpoint: mean tumor weight, dose: 60.0 mg/kg/injection, schedule: Q01DX010 (ip), vehicle: saline) is listed as 0 of 6.

Turning to `O=C(Nc1ccc(NC2=NCCN2)cc1)c1ccc(C(=O)Nc2ccc(NC3=NCCN3)cc2)cc1`, the survivor count (T/C endpoint: mean tumor weight, dose: 16.0 mg/kg/injection, schedule: Q01DX010 (ip), vehicle: saline) is given as 1 of 6.

`COC1=C(N)C(=O)c2nc(-c3nc(C(=O)O)c(C)c(-c4ccc(OC)c(OC)c4O)c3N)ccc2C1=O`: the survivor count was 3 of 6 (T/C endpoint: mean tumor weight, dose: 0.2 mg/kg/injection, schedule: Q01DX010 (ip), vehicle: other); 1 of 6 (T/C endpoint: mean tumor weight, dose: 0.3 mg/kg/injection, schedule: Q01DX010 (ip), vehicle: saline); 0 of 6 (T/C endpoint: mean tumor weight, dose: 0.45 mg/kg/injection, schedule: Q01DX010 (ip), vehicle: saline); 0 of 6 (T/C endpoint: mean tumor weight, dose: 0.66 mg/kg/injection, schedule: Q01DX010 (ip), vehicle: saline).

Turning to `CSCS(=O)C[C@H](CO)NC(=O)/C=C/c1c(C)[nH]c(=O)[nH]c1=O` (some centres not stated), under setting [4], the survivor count is recorded as 0 of 6.

As for `S=P(N1CCOCC1)(N1CC1)N1CC1`, under setting [5], the survivor count is 2 of 6.

As to `CN(C)CCCN1c2ccccc2Sc2ccc(C(F)(F)F)cc21`, the survivor count runs as follows: under setting [1], 0 of 6; under setting [6], 0 of 6.

For `CO[C@@]12[C@H](COC(N)=O)C3=C(C(=O)C(C)=C(N)C3=O)N1C[C@@H]1N[C@@H]12`, the survivor count under setting [7] is recorded as 0 of 6.

For the compound `Cc1nc(N2CC2)nc(N2CC2)c1[N+](=O)[O-]`, the survivor count under setting [8] is 0 of 6 and 1 of 6.

In the case of `C1CN1c1nc(N2CC2)nc(N2CC2)n1`, the survivor count under setting [4] is 0 of 6.

Take `O=c1ccc2ccccc2o1`: the survivor count reads like this: (T/C endpoint: mean tumor weight, dose: 250.0 mg/kg/injection, schedule: Q01DX011 (ip), vehicle: carboxymethylcellulose (CMC)) 0 of 7; (T/C endpoint: mean tumor weight, dose: 375.0 mg/kg/injection, schedule: Q01DX011 (ip), vehicle: carboxymethylcellulose (CMC)) 0 of 7.

Consider `CS(=O)(=O)OCCN(CCOS(C)(=O)=O)c1ccc(N=O)cc1`, for which the survivor count by setting is: under setting [4], 3 of 6; under setting [7], 0 of 6 and 1 of 6; (T/C endpoint: mean tumor weight, dose: 4.0 mg/kg/injection, schedule: Q01DX010 (ip), vehicle: saline) 0 of 6.

`CO[C@@H]1[C@@H](OC2OC(C)C(OC3CC(C)(O)C(OC(=O)CC(C)C)C(C)O3)C(N(C)C)C2O)[C@@H](CC=O)C[C@@H](C)C(=O)/C=C/C2O[C@H]2C[C@@H](C)OC(=O)C[C@H]1OC(C)=O` (some centres not stated): where the note is “T/C endpoint: mean tumor weight, dose: 600.0 mg/kg/injection, schedule: Q01DX010 (ip), vehicle: saline”, the survivor count is listed as 0 of 6.

As for `CCOC(N)=O`, the survivor count under setting [3] was 0 of 6.

As to `c1ccc(CSc2ncnc3nc[nH]c23)cc1`, the survivor count under setting [6] is 2 of 6.

Regarding `CC1CC(C)OS(=O)O1` (configuration not stated), the survivor count is on record as 2 of 6 under setting [6] and 0 of 6 (T/C endpoint: mean tumor weight, dose: 150.0 mg/kg/injection, schedule: Q01DX010 (ip), vehicle: saline).

Turning to `Cc1cc2nc3c(=O)[nH]c(=O)nc-3n(CC(O)C(O)C(O)C(O)CO)c2cc1C` (configuration not stated), the survivor count (T/C endpoint: mean tumor weight, dose: 400.0 mg/kg/injection, schedule: Q01DX010 (ip), vehicle: saline) is listed as 0 of 6.

As to `COc1cc(-c2ccc(Nc3ccccc3C(=O)O)c(OC)c2)ccc1Nc1ccccc1C(=O)O`, the survivor count runs as follows: under setting [6], 2 of 6 and 3 of 6; (T/C endpoint: mean tumor weight, dose: 200.0 mg/kg/injection, schedule: Q01DX010 (ip), vehicle: saline) 0 of 6.

Take `CCOC(=O)NP(=O)(N1CC1)N1CC1`: the survivor count is 1 of 6 under setting [5] and 0 of 6 under setting [2].

Consider `Nc1nc(=S)c2[nH]cnc2[nH]1`, for which the survivor count runs as follows: (T/C endpoint: mean tumor weight, dose: 2.5 mg/kg/injection, schedule: Q01DX010 (ip), vehicle: saline) 1 of 6; (T/C endpoint: mean tumor weight, dose: 5.0 mg/kg/injection, schedule: Q01DX010 (ip), vehicle: saline) 0 of 6; under setting [8], 0 of 6.

On to `Clc1ncnc2nc[nH]c12`, for which the T/C (T/C endpoint: mean tumor weight, dose: 30.0 mg/kg/injection, schedule: Q01DX010 (ip), vehicle: saline, evaluated on day 12) was 129 % of control.

As to `CC(=O)OC(C)(C)/C=C/C(=O)[C@](C)(O)[C@H]1[C@H](O)C[C@@]2(C)[C@@H]3CC=C4[C@@H](C[C@H](O)C(=O)C4(C)C)[C@]3(C)C(=O)C[C@]12C`, the survivor count (T/C endpoint: mean tumor weight, dose: 0.8 mg/kg/injection, schedule: Q01DX011 (ip), vehicle: carboxymethylcellulose (CMC)) is 0 of 4; the survivor count (T/C endpoint: mean tumor weight, dose: 1.2 mg/kg/injection, schedule: Q01DX011 (ip), vehicle: carboxymethylcellulose (CMC)) is 0 of 4; the survivor count (T/C endpoint: mean tumor weight, dose: 1.6 mg/kg/injection, schedule: Q01DX011 (ip), vehicle: carboxymethylcellulose (CMC)) was 0 of 4; the survivor count (T/C endpoint: mean tumor weight, dose: 3.2 mg/kg/injection, schedule: Q01DX011 (ip), vehicle: carboxymethylcellulose (CMC)) was 0 of 4.

Take `CC1=C[C@@H]2[C@H]([C@@H](O)C[C@@]3(C)[C@H]2CC(C)[C@]3(O)C(=O)CO)[C@@]2(C)Cc3cnn(-c4ccccc4)c3C=C12` (some centres not stated): the survivor count was 0 of 10 on day 24 (T/C endpoint: mean tumor weight (est.), dose: 6.25 mg/kg/injection, schedule: Q01DX016 (sc), vehicle: saline); 0 of 10 on day 24 (T/C endpoint: mean tumor weight (est.), dose: 12.5 mg/kg/injection, schedule: Q01DX016 (sc), vehicle: saline); 0 of 10 on day 24 (T/C endpoint: mean tumor weight (est.), dose: 25.0 mg/kg/injection, schedule: Q01DX016 (sc), vehicle: saline).
